{"source": "patent US20240150475A1", "about": "(Molecular Partners, published 2024)", "key": {"[1]": {"biological_target": "T1, truncated CD123 target (D2/D3 domains), D2-D3-hCD123 (human) (UniProt P26951)", "T1 sequence (looked up)": "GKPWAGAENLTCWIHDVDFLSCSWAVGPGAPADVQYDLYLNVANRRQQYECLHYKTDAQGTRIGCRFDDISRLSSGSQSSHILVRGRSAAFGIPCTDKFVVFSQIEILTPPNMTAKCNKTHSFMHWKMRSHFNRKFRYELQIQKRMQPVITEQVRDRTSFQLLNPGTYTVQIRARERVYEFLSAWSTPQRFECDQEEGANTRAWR", "test": "HTRF, purified DARPin protein with truncated D2-D3-hCD123, hIgG-d2 and anti-His-Tb"}, "[2]": {"biological_target": "T1, truncated CD123 target (D2/D3 domains), D2-D3-hCD123 (human)", "test": "HTRF, purified DARPin, truncated D2-D3-hCD123, hIgG-d2 and anti-His-Tb"}}, "note": "These are yes or no findings as the source states them, for the method shown. Some results given as binding are weak or reduced against the parent protein; the word gives no strength."}
{"binder": "DARPin® protein #1 (in TCE format) (designed binder, not shown: small tags and cut ends) MRGSHHHHHHGSDLGKKLLEAALEGQDDEVRELLKAGADVNAKDQEGYTPLHLAAALGHLEIVEVLLKAGADVNAKDSIGRTPLHLAAYKGHLEIVEVLLKAGADVNAQDLLGETPADLAAEQGHEDIAEVLQKAA", "values": [{"measurement": "binding", "setting": "[1]", "value": "binds"}, {"measurement": "binding", "setting": "[2]", "value": "binds"}]}
